{"source": "PubChem BioAssay AID1259299, Sanger Institute, 2017", "purpose": "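Knock-down screen of kinome and colorectal mutation genes alongside three targeted drugs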 (primary screen)", "cells": "human CAR1 colorectal cancer cells", "reagents": "siRNA pool against human genes", "challenge": "anchor drug BYL719 1 µM, cetuximab 5 µg/ml or trametinib 10 nM, or DMSO vehicle alone; exposure length not given", "read-out": "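Cell viability as fraction of non-targeting siRNA wells, mean of replicates, with robust z-score and a synergy score for each of three drugs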", "direction": "viability robust z-score, knock-down alone and viability, knock-down alone (DMSO): higher = more viable cells", "units": "viability, knock-down alone (DMSO) in fraction of control", "active means": "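a gene is called essential if its knock-down-alone viability z-score drops under -3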", "meaning of the calls": "active = essential (knock-down alone); inactive = no change", "note": "This is a random part of 794 reagents. 9 of all reagents (1.1%) were called active. 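Calls rest on knock-down alone; synergy scores play no part in calls, and no gene passed the synergy cut.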 A number with no mark means an inactive call. Viability is capped at 1. Not all columns of the deposit are shown. The record does not give: the amount of reagent, the time to read-out."}
{"gene knocked down": "TSSK3", "viability robust z-score, knock-down alone": 0.0677, "viability, knock-down alone (DMSO)": 0.933}
{"gene knocked down": "DYRK4", "viability robust z-score, knock-down alone": -1.74, "viability, knock-down alone (DMSO)": 0.766}
{"gene knocked down": "RIPK3", "viability robust z-score, knock-down alone": 0.584, "viability, knock-down alone (DMSO)": 0.981}
{"gene knocked down": "MAPKAPK3", "viability robust z-score, knock-down alone": -2.87, "viability, knock-down alone (DMSO)": 0.662}
{"gene knocked down": "SPHK1", "viability robust z-score, knock-down alone": 0.655, "viability, knock-down alone (DMSO)": 0.988}
{"gene knocked down": "MASTL", "viability robust z-score, knock-down alone": 0.052, "viability, knock-down alone (DMSO)": 0.932}
{"gene knocked down": "ACVR1B", "viability robust z-score, knock-down alone": 0.21, "viability, knock-down alone (DMSO)": 0.947}
{"gene knocked down": "PIM1", "viability robust z-score, knock-down alone": -0.437, "viability, knock-down alone (DMSO)": 0.887}
{"gene knocked down": "SRPK2", "viability robust z-score, knock-down alone": 0.789, "viability, knock-down alone (DMSO)": 1}
{"gene knocked down": "PIK3C2G", "viability robust z-score, knock-down alone": 0.0925, "viability, knock-down alone (DMSO)": 0.936}
{"gene knocked down": "RPS6KA2", "viability robust z-score, knock-down alone": -2.65, "viability, knock-down alone (DMSO)": 0.682}
{"gene knocked down": "FLT3", "viability robust z-score, knock-down alone": -0.0782, "viability, knock-down alone (DMSO)": 0.92}
{"gene knocked down": "NUP98", "viability robust z-score, knock-down alone": -2.64, "viability, knock-down alone (DMSO)": 0.683}
{"gene knocked down": "PHKG1", "viability robust z-score, knock-down alone": 0.717, "viability, knock-down alone (DMSO)": 0.993}
{"gene knocked down": "SYK", "viability robust z-score, knock-down alone": 0.789, "viability, knock-down alone (DMSO)": 1}
{"gene knocked down": "MAP3K14", "viability robust z-score, knock-down alone": 0.53, "viability, knock-down alone (DMSO)": 0.976}
{"gene knocked down": "RPS6KL1", "viability robust z-score, knock-down alone": -1.55, "viability, knock-down alone (DMSO)": 0.784}
{"gene knocked down": "GUCY2EP", "viability robust z-score, knock-down alone": -0.958, "viability, knock-down alone (DMSO)": 0.839}
{"gene knocked down": "TEC", "viability robust z-score, knock-down alone": -0.295, "viability, knock-down alone (DMSO)": 0.9}
{"gene knocked down": "DDR2", "viability robust z-score, knock-down alone": 0.789, "viability, knock-down alone (DMSO)": 1}
{"gene knocked down": "BPTF", "viability robust z-score, knock-down alone": -1.58, "viability, knock-down alone (DMSO)": 0.781}
{"gene knocked down": "PIP5K1A", "viability robust z-score, knock-down alone": -1.2, "viability, knock-down alone (DMSO)": 0.817}
{"gene knocked down": "GRK7", "viability robust z-score, knock-down alone": -0.132, "viability, knock-down alone (DMSO)": 0.915}
{"gene knocked down": "IKBKE", "viability robust z-score, knock-down alone": -0.221, "viability, knock-down alone (DMSO)": 0.907}
{"gene knocked down": "CTNNB1", "viability robust z-score, knock-down alone": -0.56, "viability, knock-down alone (DMSO)": 0.875}
{"gene knocked down": "DDR1", "viability robust z-score, knock-down alone": -0.748, "viability, knock-down alone (DMSO)": 0.858}
{"gene knocked down": "FN1", "viability robust z-score, knock-down alone": 0.0526, "viability, knock-down alone (DMSO)": 0.932}
{"gene knocked down": "MAP2K1", "viability robust z-score, knock-down alone": -0.695, "viability, knock-down alone (DMSO)": 0.863}
{"gene knocked down": "CDK8", "viability robust z-score, knock-down alone": 0.789, "viability, knock-down alone (DMSO)": 1}
{"gene knocked down": "FXN", "viability robust z-score, knock-down alone": 0.789, "viability, knock-down alone (DMSO)": 1}
{"gene knocked down": "STK39", "viability robust z-score, knock-down alone": -1.21, "viability, knock-down alone (DMSO)": 0.815}
{"gene knocked down": "PRKAG3", "viability robust z-score, knock-down alone": -2.37, "viability, knock-down alone (DMSO)": 0.709}
{"gene knocked down": "PKDCC", "viability robust z-score, knock-down alone": 0.789, "viability, knock-down alone (DMSO)": 1}
{"gene knocked down": "TK2", "viability robust z-score, knock-down alone": 0.439, "viability, knock-down alone (DMSO)": 0.968}
{"gene knocked down": "ULK3", "viability robust z-score, knock-down alone": 0.789, "viability, knock-down alone (DMSO)": 1}
{"gene knocked down": "TEK", "viability robust z-score, knock-down alone": 0.789, "viability, knock-down alone (DMSO)": 1}
